Measurements reported in PubChem BioAssay AID504786 (Drosophila RNAi Screening Center, 2011)
Assay: 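Knock-downs reducing HIF reporter induction by the iron chelator DFO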 (primary screen). Cells: Drosophila S2 cells with a stable HIF luciferase reporter. Knock-down reagent: long dsRNA against Drosophila genes, about 0.2 µg dsRNA per well of a 384-well plate. Time to read-out: three days of knock-down, then 20 h of DFO before reading. Challenge: desferrioxamine (DFO) at 100 µM, an iron chelator that mimics hypoxia, for 20 h. Measurement: 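HIF reporter luminescence in cells given 100 µM DFO for 20 h, using the mouse ldh-a hypoxia-response element, scored as per-plate z-scores; higher means greater loss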. Reading the numbers: z-score: higher = stronger loss of HIF reporter signal.
The screen tested about 21,000 reagents; this is an unselected part of those with a known target gene and a result. 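Primary screen; positive scores mean lost reporter signal, so the sign may be inverted from the usual convention.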

| gene knocked down | DRSC id | z-score, replicate 1 | z-score, replicate 2 | z-score, replicate 3 | z-score, replicate 4 |
| --- | --- | --- | --- | --- | --- |
| Poxm | DRSC16793 | -0.4 | -0.5 | -0.5 | -0.1 |
| CG31195 | DRSC13440 | -0.4 | -0.2 | – | – |
| Mi-2 | DRSC11222 | -0.5 | -1.6 | – | – |
| LUBEL | DRSC02141 | -0.3 | -0.7 | – | – |
| Tmtc1 | DRSC00147 | -0.1 | 0.2 | – | – |
| Tmtc1 | DRSC00151 | 0 | 0.3 | – | – |
| Tmtc1 | DRSC00314 | -0.2 | -0.1 | – | – |
| Tmtc1 | DRSC00411 | -0.1 | -0.3 | – | – |
| Lcp9 | DRSC04287 | 0.3 | 0 | – | – |
| LanA | DRSC11207 | -0.1 | 0 | – | – |
| Grx3 | DRSC02966 | -0.4 | -0.5 | – | – |
| bmm | DRSC10502 | -0.3 | -0.6 | – | – |
| CG31493 | DRSC12583 | -0.4 | -0.5 | – | – |
| HDAC4 | DRSC19780 | -0.3 | 0.4 | – | – |
| stg | DRSC17071 | 0.5 | -0.2 | – | – |

Only “z-score, replicate 2” (2 entries from above):
CG31195 [DRSC13440]: -0.2
Mi-2 [DRSC11222]: -1.6

Continued:
| gene knocked down | DRSC id | z-score, replicate 1 | z-score, replicate 2 | z-score, replicate 3 | z-score, replicate 4 |
| --- | --- | --- | --- | --- | --- |
| Jon65Aiii | DRSC10649 | -0.3 | -0.5 | – | – |
| plu | DRSC07665 | -0.3 | -0.3 | – | – |
| CG15740 | DRSC19706 | 2 | 2.8 | – | – |
| Non2 | DRSC08272 | -0.1 | 0 | – | – |
| Ugt36E1 | DRSC02599 | -0.3 | -0.1 | – | – |
| btd | DRSC18747 | -0.3 | -0.1 | – | – |
| CG31407 | DRSC12761 | -0.2 | -0.1 | – | – |
| JMJD4 | DRSC03025 | -0.3 | -0.2 | – | – |
| robl22E | DRSC00289 | -0.2 | -0.7 | – | – |
| AnxB11 | DRSC19331 | -0.1 | 0.5 | – | – |
| Art9 | DRSC16584 | -0.4 | -0.4 | – | – |
| dmGlut | DRSC02835 | -0.1 | 0.1 | – | – |
| Rsf1 | DRSC03423 | 0.1 | -0.7 | – | – |
| CG14645 | DRSC12231 | -0.3 | -0.6 | – | – |
| CG10194 | DRSC02025 | -0.3 | -0.6 | – | – |
| SCCRO4 | DRSC10671 | -0.3 | -0.6 | – | – |
| Syt4 | DRSC12606 | -0.3 | 0 | – | – |
| CG14180 (retired record) | DRSC10179 | 3.9 | 4 | – | – |
| CG18530 | DRSC15341 | -0.4 | -0.1 | – | – |
